Measured values published in publication PMC11542593, “Vascular endothelial growth factor receptor 2 as a potential host target for the inhibition of enterovirus replication” (Journal of Virology, 2024).

Tested on: EV-A71
Assay: Cytopathic effect (CPE) inhibition assay in RD cells
Type: cell-based, Human enterovirus A71

In the case of `CNC(=O)c1ccccc1Sc1ccc2c(/C=C/c3ccccn3)n[nH]c2c1` [Axitinib], the “SI (selectivity index), ratio CC50/EC50” value is reported as 22.91 and the EC50 (Enterovirus A, EVA71, read-out: EC50, compound concentration required to achieve 50% protection from virus-induced cytopathogenicity) is reported as 4.54 ± 1.17 µM.
